PMC10450662

Amino acid sequences for entries named in this document (tags omitted). A change or cut given only in a name is not applied to a line headed by its entry.
UniProt Q07335: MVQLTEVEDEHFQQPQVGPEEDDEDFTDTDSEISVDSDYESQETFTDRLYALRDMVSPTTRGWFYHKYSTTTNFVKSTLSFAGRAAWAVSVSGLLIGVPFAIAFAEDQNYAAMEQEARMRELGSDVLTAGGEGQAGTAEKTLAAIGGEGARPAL
UniProt V5ILY4: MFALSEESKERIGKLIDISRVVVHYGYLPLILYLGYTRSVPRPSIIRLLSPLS

Molecular target: Tom22 of Neurospora crassa with a hexahistidine tag (Neurospora crassa) (UniProt Q07335)
Assay: pull-down + SEC; His6-Tom22 held on a nickel-NTA column from outer membrane vesicles of N. crassa GR-107 solubilised in 1% GDN (10 mM MOPS pH 7.0, 50 mM potassium acetate, 50 mM imidazole), eluted with 300 mM imidazole, then Superdex 200 Increase; subunits seen by SDS-PAGE with Coomassie staining

## Tom7 of the Neurospora crassa TOM complex (from UniProt V5ILY4)
  binding: binds

Results are given in words; binding and its absence hold for the method and conditions named. Binding seen in cells or lysates may run through a third protein. Binding can be weak; no strength is given.
